# Record: PubChem BioAssay AID1259308 (NCATS, 2017)
# Purpose: 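Candidate targets for better recombinant protein yield in mammalian cells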 (primary screen)
# Cell system: human HEK293 embryonic kidney cells stably expressing firefly luciferase (HEK-CMV-Luc2-Hygro)
# Reagents: single siRNA against human genes, 0.8 pmol siRNA per well
# Duration: 72 h
# Measured: 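Reporter luminescence and viable-cell signal on separate replicate plates, given as percent of non-targeting control and median/MAD z-scores, plus per-cell luciferase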
# Scale: total luciferase, z-score and total luciferase, % of control: higher = more reporter protein produced; luciferase per cell, z-score: higher = more reporter output per viable cell; viable cells, % of control: higher = more viable cells
# Call rule: 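Active when the median/MAD z-score for overall luciferase is greater than 3; a gene was taken forward for validation with new siRNAs if at least two of its three siRNAs passed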
# Meaning of the calls: active = raised luciferase; inactive = no rise
# Here is an unselected part of about 59,000 deposited reagents. In the full data, about 1,510 (2.6%) got an active call. 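Calls use total luciferase alone and ignore viability, so some active siRNAs may act by altering cell number.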 Entries without a mark were called inactive. Reagents against one gene are numbered here. Reagent sequences are not shown.
target gene,siRNA no.,"total luciferase, z-score","total luciferase, % of control","luciferase per cell, z-score","viable cells, % of control"
SNTB2,1,-0.0772,80.4,-0.536,103
SNTB2,2,3.75 (active),157,3.35,72.4
SNTB2,3,-1.02,61.6,-0.91,87.5
LINC02870,1,-0.182,78.3,-0.408,97.4
LINC02870,2,6.69 (active),215,4.17,80.1
LINC02870,3,1.66,115,1.69,82.3
APLP1,1,-0.415,73.6,-0.298,89
APLP1,2,-0.0558,80.8,-0.22,95.6
APLP1,3,1.35,109,1.34,85.3
C1orf162,1,0.086,83.6,-0.0959,95.8
C1orf162,2,3.76 (active),157,3.21,75.1
C1orf162,3,-0.726,67.5,-0.148,78.4
NR2C2AP,1,0.535,92.5,1.52,69.3
NR2C2AP,2,1.31,108,0.889,95.4
NR2C2AP,3,1.73,116,1.23,94.1
LOC729681,1,-0.266,76.6,-0.228,90.9
LOC729681,2,-0.514,71.7,-0.00423,80.2
LOC729681,3,1.22,106,1.61,77.5
CMTM5,1,-0.447,73,-0.647,96.7
CMTM5,2,-1.06,60.9,-1.86,111
CMTM5,3,-0.0402,81.1,-0.0595,92
RTF1,1,1.32,108,1.03,92.2
RTF1,2,1.38,109,1.24,88.1
RTF1,3,0.95,101,0.461,99.7
EMB,1,0.807,97.9,1.72,69.6
EMB,2,-0.279,76.3,0.985,65.8
EMB,3,-0.926,63.5,-1.33,101
RPL29P30,1,1.06,103,1.38,80.1
RPL29P30,2,2.02,122,2.72,66.7
RPL29P30,3,0.211,86.1,0.0946,93.8
PCDH17,1,0.803,97.9,1.3,77.6
PCDH17,2,-0.0571,80.8,0.119,87.5
PCDH17,3,-0.688,68.2,0.0237,75.7
SETD4,1,-0.451,72.9,-0.605,95.5
SETD4,2,0.0509,82.9,-0.312,101
SETD4,3,1.65,115,0.868,102
PSG2,1,-0.92,63.6,-1.14,95.9
PSG2,2,1,102,1.23,82.4
PSG2,3,-1.11,59.8,-2.2,119

Targets above whose target name starts with R or r (6):
target gene,siRNA no.,"total luciferase, z-score","total luciferase, % of control","luciferase per cell, z-score","viable cells, % of control"
RTF1,1,1.32,108,1.03,92.2
RTF1,2,1.38,109,1.24,88.1
RTF1,3,0.95,101,0.461,99.7
RPL29P30,1,1.06,103,1.38,80.1
RPL29P30,2,2.02,122,2.72,66.7
RPL29P30,3,0.211,86.1,0.0946,93.8
